Measurements as given in the supplement of paper PMC8728848.
This is one part of the list.

Experiments:
Assay in all cases: glycan array binding signal (z-score within array); higher = stronger binding
Conditions in all cases: glycan notation: IUPAC condensed, linker removed
[1] = target: Neu5Ac(a2-6)Gal(b1-4)GlcNAc(b1-3)Gal(b1-4)GlcNAc(b1-3)Gal(b1-4)GlcNAc(b1-2)Man(a1-3)[Neu5Ac(a2-6)Gal(b1-4)GlcNAc(b1-3)Gal(b1-4)GlcNAc(b1-3)Gal(b1-4)GlcNAc(b1-2)Man(a1-6)]GalNAc
In short: (§1)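 Glycan array data came from 3228 arrays in the Consortium for Functional Glycomics database, and only arrays with an available protein sequence were kept. Glycan names were put into IUPAC-condensed notation, and columns mapping to the same glycan were averaged. The binding signal is a within-array Z-score, averaged across arrays of one protein sequence run at different concentrations or buffers and across linkers. A negative Z-score can be read as non-binding.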

[2] = target: Neu5Ac(a2-6)Gal(b1-4)GlcNAc(b1-3)Gal(b1-4)GlcNAc(b1-3)GalNAc
In short: as §1

[3] = target: Neu5Ac(a2-6)Gal(b1-4)GlcNAc(b1-3)Gal(b1-4)GlcNAc(b1-3)[Neu5Ac(a2-6)Gal(b1-4)GlcNAc(b1-3)Gal(b1-4)GlcNAc(b1-6)]GalNAc
In short: as §1

[4] = target: Neu5Ac(a2-6)Gal(b1-4)GlcNAc(b1-3)Gal(b1-4)GlcNAc(b1-6)[Gal(b1-3)]GalNAc
In short: as §1

[5] = target: Neu5Ac(a2-6)Gal(b1-4)GlcNAc(b1-3)Gal(b1-4)[Fuc(a1-3)]GlcNAc(b1-3)Gal(b1-4)[Fuc(a1-3)]GlcNAc
In short: as §1

[6] = target: Neu5Ac(a2-6)Gal(b1-4)GlcNAc(b1-3)GalNAc
In short: as §1

[7] = target: Neu5Ac(a2-6)Gal(b1-4)GlcNAc(b1-3)[Neu5Ac(a2-6)Gal(b1-4)GlcNAc(b1-6)]GalNAc
In short: as §1

[8] = target: Neu5Ac(a2-6)Gal(b1-4)GlcNAc(b1-6)GalNAc
In short: as §1

[9] = target: Neu5Ac(a2-6)Gal(b1-4)GlcNAc(b1-6)[Gal(b1-3)GlcNAc(b1-3)]Gal(b1-4)Glc
In short: as §1

[10] = target: Neu5Ac(a2-6)Gal(b1-4)GlcNAc(b1-6)[Gal(b1-3)]GalNAc
In short: as §1

[11] = target: Neu5Ac(a2-6)Gal(b1-4)GlcNAc6S
In short: as §1

Neu5Ac(a2-6)GalNAc = target: Neu5Ac(a2-6)GalNAc
In short: as §1

[12] = target: Neu5Ac(a2-6)GalNAc(b1-4)GlcNAc
In short: as §1

[13] = target: Neu5Ac(a2-6)GalNAc(b1-4)GlcNAc6S
In short: as §1

[14] = target: Neu5Ac(a2-6)GlcNAc(b1-4)GlcNAc
In short: as §1

[15] = target: Neu5Ac(a2-6)GlcNAc(b1-4)GlcNAc(b1-4)GlcNAc
In short: as §1

Neu5Ac(a2-8)Neu5Ac = target: Neu5Ac(a2-8)Neu5Ac
In short: as §1

[16] = target: Neu5Ac(a2-8)Neu5Ac(a2-3)Gal(b1-3)GalNAc(b1-4)[Neu5Ac(a2-3)]Gal(b1-4)Glc
In short: as §1

[17] = target: Neu5Ac(a2-8)Neu5Ac(a2-3)Gal(b1-3)GalNAc(b1-4)[Neu5Ac(a2-8)Neu5Ac(a2-3)]Gal(b1-4)Glc
In short: as §1

[18] = target: Neu5Ac(a2-8)Neu5Ac(a2-3)Gal(b1-4)Glc
In short: as §1

[19] = target: Neu5Ac(a2-8)Neu5Ac(a2-3)Gal(b1-4)GlcNAc
In short: as §1

[20] = target: Neu5Ac(a2-8)Neu5Ac(a2-3)[Gal(b1-3)GalNAc(b1-4)]Gal(b1-4)Glc
In short: as §1

[21] = target: Neu5Ac(a2-8)Neu5Ac(a2-3)[GalNAc(b1-4)]Gal(b1-4)Glc
In short: as §1

[22] = target: Neu5Ac(a2-8)Neu5Ac(a2-8)Neu5Ac
In short: as §1

[23] = target: Neu5Ac(a2-8)Neu5Ac(a2-8)Neu5Ac(a2-3)Gal(b1-4)Glc
In short: as §1

[24] = target: Neu5Ac(a2-8)Neu5Ac(a2-8)Neu5Ac(a2-3)[Gal(b1-3)GalNAc(b1-4)]Gal(b1-4)Glc
In short: as §1

[25] = target: Neu5Ac(a2-8)Neu5Ac(a2-8)Neu5Ac(a2-3)[GalNAc(b1-4)]Gal(b1-4)Glc
In short: as §1

[26] = target: Neu5Ac(a2-8)Neu5Ac(a2-8)Neu5Ac(a2-8)Neu5Ac(a2-3)[GalNAc(b1-4)]Gal(b1-4)Glc
In short: as §1

[27] = target: Neu5Ac(a2-8)Neu5Gc(a2-3)Gal(b1-4)GlcNAc
In short: as §1

[28] = target: Neu5Ac(b2-6)Gal(b1-4)GlcNAc
In short: as §1

Neu5Ac(b2-6)GalNAc = target: Neu5Ac(b2-6)GalNAc
In short: as §1

[29] = target: Neu5Ac9Ac(a2-3)Gal(b1-3)GlcNAc
In short: as §1

[30] = target: Neu5Ac9Ac(a2-3)Gal(b1-4)GlcNAc
In short: as §1

[31] = target: Neu5Ac9Ac(a2-6)Gal(b1-4)GlcNAc
In short: as §1

[32] = target: Neu5Gc(a2-3)Gal(b1-3)GlcNAc
In short: as §1

[33] = target: Neu5Gc(a2-3)Gal(b1-3)[Fuc(a1-4)]GlcNAc
In short: as §1

Neu5Gc(a2-3)Gal(b1-4)Glc = target: Neu5Gc(a2-3)Gal(b1-4)Glc
In short: as §1

[34] = target: Neu5Gc(a2-3)Gal(b1-4)GlcNAc
In short: as §1

[35] = target: Neu5Gc(a2-3)Gal(b1-4)GlcNAc(b1-3)Gal(b1-4)GlcNAc(b1-2)Man(a1-3)[Neu5Gc(a2-3)Gal(b1-4)GlcNAc(b1-3)Gal(b1-4)GlcNAc(b1-2)Man(a1-6)]Man(b1-4)GlcNAc(b1-4)GlcNAc
In short: as §1

[36] = target: Neu5Gc(a2-3)Gal(b1-4)[Fuc(a1-3)]GlcNAc
In short: as §1

[37] = target: Neu5Gc(a2-6)Gal(b1-4)GlcNAc
In short: as §1

Neu5Gc(a2-6)GalNAc = target: Neu5Gc(a2-6)GalNAc
In short: as §1

[38] = target: Neu5Gc(a2-8)Neu5Ac(a2-3)Gal(b1-4)GlcNAc
In short: as §1

[39] = target: Neu5Gc(a2-8)Neu5Gc(a2-3)Gal(b1-4)GlcNAc
In short: as §1

[40] = target: Neu5Gc(a2-8)Neu5Gc(a2-3)Gal(b1-4)GlcNAc(b1-3)Gal(b1-4)GlcNAc
In short: as §1

B1: Aap arpt (Staphylococcus epidermidis) (protein)
chain: NNEAPQMSSTLQAEEGSNAEAPQSEPTKAEEGGNAEAAQSEPTKAEEGGNAEAPQSEPTKAEEGGNAEAAQSEPTKTEEGSNVKAAQSEPTKAEEGSNAEAPQSEPTKTEEGSNAKAAQSEPTKAEEGGNAEAAQSEPTKTEEGSNAEAPQSEPTKAEEGGYAEAPQSEPTKTEEGGNAEAPNVPTIKA
glycan array binding signal (z-score) [1]: -0.663 | glycan array binding signal (z-score) [2]: -0.486 | glycan array binding signal (z-score) [3]: -0.01 | glycan array binding signal (z-score) [4]: 0.045 | glycan array binding signal (z-score) [5]: -0.9 | glycan array binding signal (z-score) [6]: -0.444 | glycan array binding signal (z-score) [7]: -1.09 | glycan array binding signal (z-score) [8]: 1.21 | glycan array binding signal (z-score) [9]: 1.38 | glycan array binding signal (z-score) [10]: 0.173 | glycan array binding signal (z-score) [11]: -0.907 | glycan array binding signal (z-score) (Neu5Ac(a2-6)GalNAc): -0.469 | glycan array binding signal (z-score) [12]: -0.35 | glycan array binding signal (z-score) [13]: 0.669 | glycan array binding signal (z-score) [14]: -0.24 | glycan array binding signal (z-score) [15]: -0.144 | glycan array binding signal (z-score) (Neu5Ac(a2-8)Neu5Ac): 0.346 | glycan array binding signal (z-score) [16]: -1.08 | glycan array binding signal (z-score) [17]: -0.105 | glycan array binding signal (z-score) [18]: 1.97 | glycan array binding signal (z-score) [19]: -0.817 | glycan array binding signal (z-score) [20]: 0.455 | glycan array binding signal (z-score) [21]: -0.974 | glycan array binding signal (z-score) [22]: 0.137 | glycan array binding signal (z-score) [23]: 0.417 | glycan array binding signal (z-score) [24]: 0.163 | glycan array binding signal (z-score) [25]: 0.543 | glycan array binding signal (z-score) [26]: 0.92 | glycan array binding signal (z-score) [27]: -0.716 | glycan array binding signal (z-score) [28]: -1.06 | glycan array binding signal (z-score) (Neu5Ac(b2-6)GalNAc): -0.704 | glycan array binding signal (z-score) [29]: -0.136 | glycan array binding signal (z-score) [30]: 0.07 | glycan array binding signal (z-score) [31]: -0.308 | glycan array binding signal (z-score) [32]: -0.085 | glycan array binding signal (z-score) [33]: -0.921 | glycan array binding signal (z-score) (Neu5Gc(a2-3)Gal(b1-4)Glc): 1.13 | glycan array binding signal (z-score) [34]: 0.041 | glycan array binding signal (z-score) [35]: -1.29 | glycan array binding signal (z-score) [36]: 0.408 | glycan array binding signal (z-score) [37]: 0.146 | glycan array binding signal (z-score) (Neu5Gc(a2-6)GalNAc): 0.687 | glycan array binding signal (z-score) [38]: -0.497 | glycan array binding signal (z-score) [39]: -0.599 | glycan array binding signal (z-score) [40]: -0.491
